Data as given in PubChem BioAssay AID493246 (Drosophila RNAi Screening Center, 2011).
The screen tested about 21,000 reagents; this is a random part of those that have a named target and a result. In the full data, 429 (2%) got an active call. 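Values are raw and not normalised between plates; calls rest on per-plate z-scores that were not deposited.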 Reagents against one gene are numbered here. The record does not give: the amount of reagent, the time to read-out.

- Screen: 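Identify essential fly genes by loss of cell viability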 (primary screen)
- Cells: Drosophila Kc and S2R+ cells
- Reagents: long dsRNA against Drosophila genes
- Measurement: 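Raw, unnormalised count of remaining cells in each well; per-plate z-scores of cell number underlie the calls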
- Scale: Kc cell number and S2R+ cell number: higher = more cells remaining
- Active means: 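Counted as a hit if cell number falls by a z-score of at least 3 within its plate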

CG31999 (GeneID 43777) #1 → Kc cell number, rep 1: 1.45e6; Kc cell number, rep 2: 1.44e6; S2R+ cell number, rep 1: 1.02e6; S2R+ cell number, rep 2: 1.10e6; Outcome: inactive
CG31999 (GeneID 43777) #2 → Kc cell number, rep 1: 1.44e6; Kc cell number, rep 2: 1.40e6; S2R+ cell number, rep 1: 9.91e5; S2R+ cell number, rep 2: 1.09e6; Outcome: inactive
pzg (GeneID 40351) → Kc cell number, rep 1: 1.28e6; Kc cell number, rep 2: 1.35e6; S2R+ cell number, rep 1: 1.43e6; S2R+ cell number, rep 2: 1.48e6; Outcome: inactive
CG10031 (GeneID 33594) → Kc cell number, rep 1: 1.61e6; Kc cell number, rep 2: 1.54e6; S2R+ cell number, rep 1: 1.24e6; S2R+ cell number, rep 2: 1.31e6; Outcome: inactive
Gr28b (GeneID 117496) #1 → Kc cell number, rep 1: 1.63e6; Kc cell number, rep 2: 1.49e6; S2R+ cell number, rep 1: 1.28e6; S2R+ cell number, rep 2: 1.42e6; Outcome: inactive
Gr28b (GeneID 117496) #2 → Kc cell number, rep 1: 1.63e6; Kc cell number, rep 2: 1.55e6; S2R+ cell number, rep 1: 1.22e6; S2R+ cell number, rep 2: 1.43e6; Outcome: inactive
PGRP-SD (GeneID 38858) → Kc cell number, rep 1: 1.28e6; Kc cell number, rep 2: 1.35e6; S2R+ cell number, rep 1: 1.15e6; S2R+ cell number, rep 2: 1.19e6; Outcome: inactive
CG33099 (GeneID 326254) → Kc cell number, rep 1: 1.38e6; Kc cell number, rep 2: 1.51e6; S2R+ cell number, rep 1: 1.08e6; S2R+ cell number, rep 2: 1.20e6; Outcome: inactive
Sgf11 (GeneID 40035) → Kc cell number, rep 1: 1.49e6; Kc cell number, rep 2: 1.61e6; S2R+ cell number, rep 1: 1.40e6; S2R+ cell number, rep 2: 1.56e6; Outcome: inactive
thr (GeneID 37042) → Kc cell number, rep 1: 1.16e6; Kc cell number, rep 2: 1.29e6; S2R+ cell number, rep 1: 6.39e5; S2R+ cell number, rep 2: 7.20e5; Outcome: inactive
Vajk3 (GeneID 34812) → Kc cell number, rep 1: 1.31e6; Kc cell number, rep 2: 1.42e6; S2R+ cell number, rep 1: 1.27e6; S2R+ cell number, rep 2: 1.25e6; Outcome: inactive
Jhbp12 (GeneID 42924) → Kc cell number, rep 1: 1.63e6; Kc cell number, rep 2: 1.69e6; S2R+ cell number, rep 1: 1.10e6; S2R+ cell number, rep 2: 1.20e6; Outcome: inactive
mey (GeneID 43715) → Kc cell number, rep 1: 5.25e5; S2R+ cell number, rep 1: 7.66e5; Outcome: inactive
CG14174 (GeneID 39139) → Kc cell number, rep 1: 1.19e6; Kc cell number, rep 2: 1.19e6; S2R+ cell number, rep 1: 1.26e6; S2R+ cell number, rep 2: 1.34e6; Outcome: inactive
CG15599 (GeneID 32503) → Kc cell number, rep 1: 1.42e6; Kc cell number, rep 2: 1.46e6; S2R+ cell number, rep 1: 1.06e6; S2R+ cell number, rep 2: 1.10e6; Outcome: inactive
Phlpp (GeneID 35178) → Kc cell number, rep 1: 1.47e6; Kc cell number, rep 2: 1.62e6; S2R+ cell number, rep 1: 1.28e6; S2R+ cell number, rep 2: 3.40e5; Outcome: inactive
VhaPPA1-2 (GeneID 41806) → Kc cell number, rep 1: 1.34e6; Kc cell number, rep 2: 1.59e6; S2R+ cell number, rep 1: 1.06e6; S2R+ cell number, rep 2: 1.11e6; Outcome: inactive

The list goes on (3 carried over from the part before).
CG15599 (GeneID 32503) → Kc cell number, rep 1: 1.42e6; Kc cell number, rep 2: 1.46e6; S2R+ cell number, rep 1: 1.06e6; S2R+ cell number, rep 2: 1.10e6; Outcome: inactive
Phlpp (GeneID 35178) → Kc cell number, rep 1: 1.47e6; Kc cell number, rep 2: 1.62e6; S2R+ cell number, rep 1: 1.28e6; S2R+ cell number, rep 2: 3.40e5; Outcome: inactive
VhaPPA1-2 (GeneID 41806) → Kc cell number, rep 1: 1.34e6; Kc cell number, rep 2: 1.59e6; S2R+ cell number, rep 1: 1.06e6; S2R+ cell number, rep 2: 1.11e6; Outcome: inactive
CG12769 (GeneID 35770) → Kc cell number, rep 1: 1.65e6; Kc cell number, rep 2: 1.60e6; S2R+ cell number, rep 1: 1.15e6; S2R+ cell number, rep 2: 1.13e6; Outcome: inactive
pncr004:X (retired record) (GeneID 3772236) → Kc cell number, rep 1: 1.30e6; Kc cell number, rep 2: 1.47e6; S2R+ cell number, rep 1: 1.06e6; S2R+ cell number, rep 2: 1.17e6; Outcome: inactive
CG7378 (GeneID 32888) → Kc cell number, rep 1: 1.44e6; Kc cell number, rep 2: 1.47e6; S2R+ cell number, rep 1: 1.02e6; S2R+ cell number, rep 2: 1.09e6; Outcome: inactive
Pgant5 (GeneID 326151) → Kc cell number, rep 1: 1.28e6; Kc cell number, rep 2: 1.32e6; S2R+ cell number, rep 1: 5.34e5; S2R+ cell number, rep 2: 5.96e5; Outcome: inactive
SMC3 (GeneID 32627) → Kc cell number, rep 1: 1.47e6; Kc cell number, rep 2: 1.41e6; S2R+ cell number, rep 1: 9.97e5; S2R+ cell number, rep 2: 1.07e6; Outcome: inactive
jeb (GeneID 36295) #1 → Kc cell number, rep 1: 1.58e6; Kc cell number, rep 2: 1.51e6; S2R+ cell number, rep 1: 1.18e6; S2R+ cell number, rep 2: 1.26e6; Outcome: inactive
jeb (GeneID 36295) #2 → Kc cell number, rep 1: 1.54e6; Kc cell number, rep 2: 1.62e6; S2R+ cell number, rep 1: 1.17e6; S2R+ cell number, rep 2: 1.32e6; Outcome: inactive
CG1983 (GeneID 43588) → Kc cell number, rep 1: 1.43e6; Kc cell number, rep 2: 1.42e6; S2R+ cell number, rep 1: 9.82e5; S2R+ cell number, rep 2: 1.11e6; Outcome: inactive
sinah (GeneID 39885) → Kc cell number, rep 1: 1.48e6; Kc cell number, rep 2: 1.80e6; S2R+ cell number, rep 1: 1.39e6; S2R+ cell number, rep 2: 1.52e6; Outcome: inactive
CG12983 (GeneID 40319) → Kc cell number, rep 1: 1.34e6; Kc cell number, rep 2: 1.51e6; S2R+ cell number, rep 1: 1.29e6; S2R+ cell number, rep 2: 1.41e6; Outcome: inactive
